Assay results from PMC10782741.
Results are given in words; binding and its absence hold for the method and conditions named. In cells and extracts the contact can be indirect. Some entries that bind do so weakly or less than the wild type.

Protein sequences, listed by entry. Tags and fused reporters are not part of them.
UniProt O60678: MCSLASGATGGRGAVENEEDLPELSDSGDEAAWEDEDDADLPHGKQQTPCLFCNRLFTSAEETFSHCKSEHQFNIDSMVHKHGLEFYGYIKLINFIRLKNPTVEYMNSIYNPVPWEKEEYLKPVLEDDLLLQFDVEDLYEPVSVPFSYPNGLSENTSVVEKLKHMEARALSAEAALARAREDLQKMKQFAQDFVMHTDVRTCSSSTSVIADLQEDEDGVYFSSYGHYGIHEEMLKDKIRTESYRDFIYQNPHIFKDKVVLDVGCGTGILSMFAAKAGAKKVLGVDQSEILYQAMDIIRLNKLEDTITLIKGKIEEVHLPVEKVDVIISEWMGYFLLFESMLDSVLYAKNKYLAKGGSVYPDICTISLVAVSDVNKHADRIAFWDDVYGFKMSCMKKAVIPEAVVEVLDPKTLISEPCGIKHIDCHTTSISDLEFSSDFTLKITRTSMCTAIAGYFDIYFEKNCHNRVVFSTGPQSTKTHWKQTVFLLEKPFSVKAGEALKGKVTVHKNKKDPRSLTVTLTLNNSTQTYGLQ
UniProt Q16665: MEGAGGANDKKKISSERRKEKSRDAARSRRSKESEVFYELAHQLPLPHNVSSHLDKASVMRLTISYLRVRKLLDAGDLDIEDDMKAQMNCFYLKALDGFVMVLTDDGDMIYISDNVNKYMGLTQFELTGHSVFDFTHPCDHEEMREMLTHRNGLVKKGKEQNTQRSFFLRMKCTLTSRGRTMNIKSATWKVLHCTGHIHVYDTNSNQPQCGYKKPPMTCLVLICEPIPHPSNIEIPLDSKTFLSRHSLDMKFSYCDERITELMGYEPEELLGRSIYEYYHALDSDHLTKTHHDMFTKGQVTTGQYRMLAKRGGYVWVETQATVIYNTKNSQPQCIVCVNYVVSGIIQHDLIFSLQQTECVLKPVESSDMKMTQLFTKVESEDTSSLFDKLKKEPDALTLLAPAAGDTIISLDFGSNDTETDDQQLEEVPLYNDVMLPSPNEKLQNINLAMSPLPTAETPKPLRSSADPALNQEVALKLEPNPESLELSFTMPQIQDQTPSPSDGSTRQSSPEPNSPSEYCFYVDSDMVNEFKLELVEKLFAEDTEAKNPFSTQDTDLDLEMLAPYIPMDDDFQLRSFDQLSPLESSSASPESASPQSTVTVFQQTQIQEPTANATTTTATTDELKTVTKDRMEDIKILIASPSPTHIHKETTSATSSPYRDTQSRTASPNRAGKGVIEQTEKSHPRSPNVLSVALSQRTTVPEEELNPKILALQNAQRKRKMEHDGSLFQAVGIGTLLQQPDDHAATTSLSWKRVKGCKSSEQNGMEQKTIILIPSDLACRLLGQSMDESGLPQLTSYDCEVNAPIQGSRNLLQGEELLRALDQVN

Target: protein arginine methyltransferase 3 (human (endogenous in VSMCs)) (UniProt O60678)
Test: co-IP; Pierce Co-IP Kit; anti-PRMT3 antibody covalently linked to amine-active resin; whole-cell lysate of VSMCs incubated with/without 10 mM β-GP, 4 °C overnight; IgG as negative control; western blot

## hypoxia inducible factor 1 subunit alpha (from UniProt Q16665 1-826)
  binding: binds
